Each structure is given as a SMILES string. The list shows a part of the results. Single values are uncertain here, since repeats match poorly.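 The human kidney-derived cells carry a stably integrated construct of eight TEAD-binding elements driving luciferase, read by luminescence in a drug-repurposing library screen. A compound counts as a hit when its signal is more than five robust Z scores above the plate mean.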

The test system of the assay is HEK293A TEAD-LUC reporter. Kind of assay: TEAD-luciferase reporter activity (YAP activation), robust Z score vs plate; higher = stronger YAP/TEAD activation. As to conditions: 24 h. (A reporter such as luciferase makes a cellular process visible.)

`CC(=O)NC[C@H]1CN(c2cc(F)c(-c3ccc(C(C)=O)cc3)c(F)c2)C(=O)O1`: the TEAD-luciferase reporter activity is inactive: 1.67 (compound concentration: 200 nM), inactive: -0.544 (compound concentration: 2 uM) and inactive: 3.18 (compound concentration: 10 uM).

With `Cn1c([N+](=O)[O-])cnc1C(O)c1cc(C(C)(C)C)ccc1O` (stereo not drawn), the TEAD-luciferase reporter activity runs as follows: (compound concentration: 200 nM) inactive: -1.55; (compound concentration: 2 uM) inactive: -1.6; (compound concentration: 10 uM) inactive: -0.597.

`Cc1ccccc1/C=C/C(N)=O`: the TEAD-luciferase reporter activity by setting is: (compound concentration: 200 nM) inactive: 2.39; (compound concentration: 2 uM) inactive: 2.6; (compound concentration: 10 uM) inactive: -0.0545.

In the case of `NS(=O)(=O)NC[C@H]1COc2cc(Cl)ccc2O1`, the TEAD-luciferase reporter activity runs as follows: (compound concentration: 200 nM) inactive: 0.14; (compound concentration: 2 uM) inactive: -0.825; (compound concentration: 10 uM) inactive: -0.152.

In the case of `CONC(=O)Nc1ccc(-c2sc3c(c2CN(C)Cc2ccccc2)c(=O)n(-c2ccccc2)c(=O)n3Cc2c(F)cccc2F)cc1` [Sufugolix], the TEAD-luciferase reporter activity is, setting by setting: (compound concentration: 200 nM) inactive: 0.423; (compound concentration: 2 uM) inactive: -1.39; (compound concentration: 10 uM) inactive: -1.22.

On to `CC(C)(O/N=C(\C(=O)N[C@@H]1C(=O)N2C(C(=O)[O-])=C(C[N+]3(CCNC(=O)c4ccc(O)c(O)c4Cl)CCCC3)CS[C@H]12)c1csc(N)n1)C(=O)O` [Cefiderocol], for which the TEAD-luciferase reporter activity is, setting by setting: (compound concentration: 200 nM) inactive: -1.35; (compound concentration: 10 uM) inactive: -0.67.

As to `CC(=O)Nc1cccc(O)c1`, the TEAD-luciferase reporter activity runs as follows: (compound concentration: 200 nM) inactive: -0.755; (compound concentration: 2 uM) inactive: 0.141; (compound concentration: 10 uM) inactive: -1.15.

Turning to `Cc1ccc2c(Br)cc(Br)c(OC(=O)c3ccccc3)c2n1`, the TEAD-luciferase reporter activity (compound concentration: 200 nM) was inactive: 0.965, the TEAD-luciferase reporter activity (compound concentration: 2 uM) is inactive: -0.143 and the TEAD-luciferase reporter activity (compound concentration: 10 uM) is inactive: 1.38.

In the case of `COc1cc(C(=O)NS(=O)(=O)c2ccccc2C)ccc1Cc1cn(C)c2ccc(NC(=O)OC3CCCC3)cc12`, the TEAD-luciferase reporter activity is inactive: -1.38 (compound concentration: 200 nM) and inactive: -0.138 (compound concentration: 10 uM).

Take `COc1cc(C(=O)NS(=O)(=O)c2ccccc2C)ccc1Cc1cn(C)c2ccc(NC(=O)OC3CCCC3)cc12` [zafirlukast]: for the setting “compound concentration: 2 uM”, the TEAD-luciferase reporter activity is inactive: -1.5.

For `NCC(=O)Nc1ccc(-n2nc(C(F)(F)F)cc2-c2ccc3c(ccc4ccccc43)c2)cc1`, the TEAD-luciferase reporter activity by setting is: (compound concentration: 200 nM) inactive: -0.785; (compound concentration: 2 uM) inactive: -0.868; (compound concentration: 10 uM) inactive: 1.27.

Consider `Cc1[nH]c2ccccc2c1CCNCc1ccc(/C=C/C(=O)NO)cc1` [Panobinostat lactate], for which the TEAD-luciferase reporter activity (compound concentration: 2 uM) was active: 27.

Consider `Cc1[nH]c2ccccc2c1CCNCc1ccc(/C=C/C(=O)NO)cc1` [Panobinostat], for which the TEAD-luciferase reporter activity (compound concentration: 200 nM) was active: 61.7 and the TEAD-luciferase reporter activity (compound concentration: 10 uM) was active: 39.6.

Regarding `CN1C(=O)CC(c2ccccc2)C1=O` (stereo not drawn) [Phensuximide], the TEAD-luciferase reporter activity was inactive: 0.584 (compound concentration: 200 nM), inactive: -1.87 (compound concentration: 2 uM) and inactive: 4.85 (compound concentration: 10 uM).

`COc1ccc(CN2CCCCC23Cc2ccccc2CNC3=O)cc1OC` (stereo not drawn): the TEAD-luciferase reporter activity is, setting by setting: (compound concentration: 200 nM) inactive: -2.37; (compound concentration: 10 uM) inactive: -0.0658.

For `CCN(CC)CCOC(=O)C(Cc1cccc2ccccc12)CC1CCCO1` (stereo not drawn) [naftidrofuryl SR, Ethypharm], the TEAD-luciferase reporter activity is inactive: 0.0504 (compound concentration: 200 nM) and inactive: 3.92 (compound concentration: 10 uM).

For `CCN(CC)CCOC(=O)C(Cc1cccc2ccccc12)CC1CCCO1` (stereo not drawn) [naftidrofuryl SR], for the setting “compound concentration: 2 uM”, the TEAD-luciferase reporter activity was inactive: -1.18.

Consider `CCCCNc1cc(C(=O)O)cc(S(N)(=O)=O)c1Oc1ccccc1`, for which the TEAD-luciferase reporter activity was inactive: -1.65 (compound concentration: 200 nM) and inactive: 0.354 (compound concentration: 10 uM).

As to `CCCCNc1cc(C(=O)O)cc(S(N)(=O)=O)c1Oc1ccccc1` [bumetanide], under “compound concentration: 2 uM”, the TEAD-luciferase reporter activity is inactive: 2.24.

As to `O=C(c1cc(C(F)(F)F)cc(C(F)(F)F)c1)N1CCN(Cc2n[nH]nc2CN2CCOCC2)C[C@H]1Cc1c[nH]c2ccccc12`, the TEAD-luciferase reporter activity is inactive: 1.16 (compound concentration: 200 nM), inactive: 1.07 (compound concentration: 2 uM) and inactive: 0.0577 (compound concentration: 10 uM).

As for `COc1cc2[nH]c(C)c(CCN3CCN(c4ccccc4)CC3)c2cc1OC` [Oxypertine], the TEAD-luciferase reporter activity runs as follows: (compound concentration: 200 nM) inactive: -0.456; (compound concentration: 2 uM) inactive: -0.487; (compound concentration: 10 uM) inactive: -1.22.

Regarding `O=C(NC1CCN(CCCCC2(C(=O)NCC(F)(F)F)c3ccccc3-c3ccccc32)CC1)c1ccccc1-c1ccc(C(F)(F)F)cc1` [Lomitapide], the TEAD-luciferase reporter activity by setting is: (compound concentration: 200 nM) inactive: 0.446; (compound concentration: 2 uM) inactive: -0.957; (compound concentration: 10 uM) inactive: 1.08.

For the compound `CCCCOC(=O)COc1ccc(C(=O)CNC(=O)c2cc3c(s2)CCNC3)cc1OCC(=O)OCCCC`, the TEAD-luciferase reporter activity is inactive: -1.78 (compound concentration: 200 nM), inactive: -1.28 (compound concentration: 2 uM) and inactive: 0.523 (compound concentration: 10 uM).

Turning to `CC(C)(C(=O)NC1C2CC3CC1CC(C(N)=O)(C3)C2)N1CCN(c2ccc(C(F)(F)F)cn2)CC1` (stereo not drawn), the TEAD-luciferase reporter activity runs as follows: (compound concentration: 200 nM) inactive: -0.126; (compound concentration: 2 uM) inactive: -1.33; (compound concentration: 10 uM) inactive: 0.658.

Consider `CC(C)=CCC[C@](C)(O)[C@H]1CC[C@]2(C)[C@@H]1[C@H](O)C[C@@H]1[C@@]3(C)CC[C@H](O)C(C)(C)[C@@H]3CC[C@]12C` [20(S)-Protopanaxadiol, one component of PBD-2131], for which the TEAD-luciferase reporter activity is, setting by setting: (compound concentration: 200 nM) inactive: -0.547; (compound concentration: 2 uM) inactive: -0.0502; (compound concentration: 10 uM) inactive: 0.0761.

With `CCOc1c([C@H](C)n2nc(C)c3c(N)ncnc32)cc(Cl)c(F)c1[C@@H]1CNC(=O)C1`, the TEAD-luciferase reporter activity by setting is: (compound concentration: 200 nM) inactive: -0.619; (compound concentration: 2 uM) inactive: -1.24; (compound concentration: 10 uM) inactive: 0.995.

Turning to `CCC(CC)CNC(=O)Cn1cccc(NC(=O)[C@H](CC/C=C/C(=O)OC)NC(=O)c2cncn2C)c1=O`, the TEAD-luciferase reporter activity is inactive: -0.721 (compound concentration: 200 nM), inactive: -0.461 (compound concentration: 2 uM) and inactive: 0.493 (compound concentration: 10 uM).

Take `Cc1ccc(F)cc1C(=O)Nc1ccc(C(=O)N2Cc3cccn3Cc3ccccc32)c(Cl)c1` [lixivaptan]: the TEAD-luciferase reporter activity is inactive: -0.333 (compound concentration: 200 nM), inactive: 0.248 (compound concentration: 2 uM) and inactive: 0.7 (compound concentration: 10 uM).

Consider `Cc1ccc(Cl)c(OCC(O)CNC(C)(C)C)c1` (stereo not drawn) [Bupranolol], for which the TEAD-luciferase reporter activity was inactive: 1.09 (compound concentration: 200 nM), inactive: 2.32 (compound concentration: 2 uM) and inactive: 1.93 (compound concentration: 10 uM).
